Reference: publication doi:10.1101/428250
No constants are given. Whether binding was seen depends on the method and setting. In cells and extracts the contact can be indirect. Where a sequence is shown, tags or fusion partners need not be part of it.

Protein sequences, listed by entry. Tags and fused reporters are not part of them.
UniProt Q9UKV8: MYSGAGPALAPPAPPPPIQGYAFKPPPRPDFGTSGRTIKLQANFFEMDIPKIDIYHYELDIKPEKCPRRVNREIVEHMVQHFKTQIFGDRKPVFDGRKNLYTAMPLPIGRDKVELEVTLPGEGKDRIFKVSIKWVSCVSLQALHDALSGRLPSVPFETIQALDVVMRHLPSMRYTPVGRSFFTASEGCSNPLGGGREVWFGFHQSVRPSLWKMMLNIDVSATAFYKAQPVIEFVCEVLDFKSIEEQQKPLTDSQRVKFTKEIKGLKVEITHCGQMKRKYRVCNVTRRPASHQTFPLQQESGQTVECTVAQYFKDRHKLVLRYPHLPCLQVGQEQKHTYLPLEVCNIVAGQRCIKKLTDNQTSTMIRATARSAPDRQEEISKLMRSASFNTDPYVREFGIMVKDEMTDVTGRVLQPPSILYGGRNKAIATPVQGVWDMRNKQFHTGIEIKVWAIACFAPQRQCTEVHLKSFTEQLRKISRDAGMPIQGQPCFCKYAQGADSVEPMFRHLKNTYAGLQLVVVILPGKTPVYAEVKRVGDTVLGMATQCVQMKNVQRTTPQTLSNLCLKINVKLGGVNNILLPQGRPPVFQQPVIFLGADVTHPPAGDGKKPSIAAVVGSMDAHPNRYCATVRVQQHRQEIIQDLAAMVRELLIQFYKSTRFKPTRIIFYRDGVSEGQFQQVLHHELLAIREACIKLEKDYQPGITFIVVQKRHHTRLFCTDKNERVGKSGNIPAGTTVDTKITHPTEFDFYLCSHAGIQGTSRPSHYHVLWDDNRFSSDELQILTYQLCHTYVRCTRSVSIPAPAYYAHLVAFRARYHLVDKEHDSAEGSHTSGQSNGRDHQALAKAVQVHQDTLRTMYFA

target: T1, eGFP-tagged human NRDE2 (human) (UniProt Q9H7Z3); test: co-IP
T1 sequence: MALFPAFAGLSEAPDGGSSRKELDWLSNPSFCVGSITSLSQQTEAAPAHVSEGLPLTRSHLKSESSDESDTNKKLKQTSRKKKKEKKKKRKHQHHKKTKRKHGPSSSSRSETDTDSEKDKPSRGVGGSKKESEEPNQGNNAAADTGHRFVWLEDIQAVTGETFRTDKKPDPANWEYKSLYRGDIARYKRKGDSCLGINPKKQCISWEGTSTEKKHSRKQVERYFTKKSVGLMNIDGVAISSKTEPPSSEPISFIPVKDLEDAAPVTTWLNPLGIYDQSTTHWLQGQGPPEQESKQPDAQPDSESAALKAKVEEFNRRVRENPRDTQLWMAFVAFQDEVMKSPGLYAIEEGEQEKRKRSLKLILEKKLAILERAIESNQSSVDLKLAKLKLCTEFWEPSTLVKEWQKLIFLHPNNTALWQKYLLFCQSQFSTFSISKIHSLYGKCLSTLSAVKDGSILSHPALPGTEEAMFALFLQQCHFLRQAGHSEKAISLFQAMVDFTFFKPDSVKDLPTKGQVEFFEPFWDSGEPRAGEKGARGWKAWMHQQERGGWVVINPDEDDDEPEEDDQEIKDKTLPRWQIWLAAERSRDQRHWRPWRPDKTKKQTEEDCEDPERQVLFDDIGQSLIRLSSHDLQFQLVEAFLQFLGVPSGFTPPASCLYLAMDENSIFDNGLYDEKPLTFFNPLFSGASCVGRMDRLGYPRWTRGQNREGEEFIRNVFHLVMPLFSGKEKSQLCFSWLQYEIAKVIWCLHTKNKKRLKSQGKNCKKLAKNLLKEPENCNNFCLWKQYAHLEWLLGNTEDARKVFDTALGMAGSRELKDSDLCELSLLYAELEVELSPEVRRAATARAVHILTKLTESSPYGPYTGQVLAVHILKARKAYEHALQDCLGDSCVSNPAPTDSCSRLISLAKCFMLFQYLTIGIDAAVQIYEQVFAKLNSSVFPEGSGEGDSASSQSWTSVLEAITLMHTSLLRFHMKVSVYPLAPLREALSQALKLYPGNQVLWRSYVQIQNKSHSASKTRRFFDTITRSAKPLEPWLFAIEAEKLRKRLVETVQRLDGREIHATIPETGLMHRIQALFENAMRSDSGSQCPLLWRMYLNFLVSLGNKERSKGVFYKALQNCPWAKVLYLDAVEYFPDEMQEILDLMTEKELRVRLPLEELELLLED

binding, no binding:
human Argonaute Ago1 (from UniProt Q9UL18 1-857), human Argonaute Ago2 (from UniProt Q9UKV8 1-859), human Argonaute Ago3 (from UniProt Q9H9G7 1-860)
